Paper PMC2632646
No constants are given. Whether binding was seen depends on the method and setting. Binding seen in cells or lysates may run through a third protein. Some entries that bind do so weakly or less than the wild type.

By UniProt entry, the sequences of proteins in these tests, tags left out.
UniProt Q13526: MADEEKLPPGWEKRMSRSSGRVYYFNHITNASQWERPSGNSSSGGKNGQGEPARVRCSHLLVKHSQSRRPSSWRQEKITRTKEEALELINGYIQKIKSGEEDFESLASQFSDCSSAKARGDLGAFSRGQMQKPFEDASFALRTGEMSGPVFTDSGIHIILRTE

Target: erbB2 (human (endogenous in SKBR3)) (UniProt P04626)
Assay: co-IP; cell lysates immunoprecipitated with anti-erbB2 antibodies, immunoblot for erbB2, Ubiquitin, Tubulin and Pin1; SKBR3 cells transfected with control or Pin1 siRNA for 72 hours, treated with 100 uM ALLnL 6 hours before lysis

binding: binds
Substance: Prolyl isomerase Pin1 (from UniProt Q13526 1-163) (enzyme)
